PubChem BioAssay AID504808, Drosophila RNAi Screening Center – 2011
Screen: 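Fly genes required to hold E2F transcription in check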 (primary screen). Cells: Drosophila S2 cells. Reagents: long dsRNA against Drosophila genes. Measured: 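Dual luciferase plate measurements; E2F-specific signal taken as firefly over Renilla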. Direction: E2F firefly: higher = more E2F reporter activity; Renilla normaliser: higher = more normaliser reporter signal. Hit rule: 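Called active if the normalised E2F reporter went up by over 50%; the cutoff is arbitrary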.
In all, the deposit lists about 21,000 reagents; below is an unselected part of those with a known target gene and a result. In the full data, 18 (0.084%) got an active call. 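Raw counts without plate normalisation, one of two replicates; the ratio scores behind the calls were not deposited.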 Reagents against one gene are numbered here. A plus sign joins genes that one reagent is predicted to hit. Not stated in the record: the amount of reagent, the time to read-out.

Pdzd8 | E2F firefly, rep 1: 1.20e5; Renilla normaliser, rep 1: 6615; activity call: inactive
CG14823 | E2F firefly, rep 1: 66871; Renilla normaliser, rep 1: 3739; activity call: inactive
Prosalpha2 | E2F firefly, rep 1: 83135; Renilla normaliser, rep 1: 6899; activity call: inactive
CG33695 + cana #1 | E2F firefly, rep 1: 1.01e5; Renilla normaliser, rep 1: 7524; activity call: inactive
CG33695 + cana #2 | E2F firefly, rep 1: 1.52e5; Renilla normaliser, rep 1: 5171; activity call: inactive
Fum2 | E2F firefly, rep 1: 92208; Renilla normaliser, rep 1: 5479; activity call: inactive
Eno | E2F firefly, rep 1: 1.60e5; Renilla normaliser, rep 1: 6194; activity call: inactive
CG8850 | E2F firefly, rep 1: 1.01e5; Renilla normaliser, rep 1: 4350; activity call: inactive
Cog1 | E2F firefly, rep 1: 74202; Renilla normaliser, rep 1: 3474; activity call: inactive
CG5968 | E2F firefly, rep 1: 91643; Renilla normaliser, rep 1: 3780; activity call: inactive
E(spl)m6-BFM | E2F firefly, rep 1: 1.13e5; Renilla normaliser, rep 1: 6247; activity call: inactive
SkpE | E2F firefly, rep 1: 1.48e5; Renilla normaliser, rep 1: 5216; activity call: inactive

2 neighbouring reagents from above, quoted:
CG5968 | E2F firefly, rep 1: 91643; Renilla normaliser, rep 1: 3780; activity call: inactive
E(spl)m6-BFM | E2F firefly, rep 1: 1.13e5; Renilla normaliser, rep 1: 6247; activity call: inactive
